Some entries share one result that the patent states for a list of compounds. At least one structure is not confirmed: it was looked up by name or label, or the drawing left a doubt.
Tested on: Meloidogyne incognita
Assay: Meloidogyne incognita control test (in vitro)
Type: in vivo
Settings: 10 ppm; second stage larvae; 2 days after addition; 25° C.

For C[C@H]1CC(=O)N2C[C@]34C[C@]5(CC(=O)N(C)C5=O)C(C)(C)[C@@H]3CC12C(=O)N4C [Compound (1), 16-keto-aspergillimide], the moribund-mortal worm rate was ≥ 90%.
With C[C@H]1CCN2C[C@@]34C[C@]5(CC(=O)N(C)C5=O)C(C)(C)[C@@H]3C[C@]12C(=O)N4C [Compound (2), asperparaline A] the moribund-mortal worm rate was ≥ 90%.

Reference: patent publication US12439921B2 (priority 2019, dated 2025)
